In ChEMBL document CHEMBL3352352, “Structure-Based Drug Design of Novel, Potent, and Selective Azabenzimidazoles (ABI) as ATR Inhibitors” (ACS Med Chem Lett, 2015):

Test: Solubility of the compound in PBS buffer at pH 7 by shake flask equilibrium solubility assay

For `C[C@@H]1COCCN1c1nc(-c2cncc3[nH]ccc23)cc2c1ncn2C`, the solubility thermodynamic was > 1700 µM.
